Measurements reported in patent publication US20070134261A1, “Effectors of innate immunity” (priority 2001, published 2007).
Where “and” joins values, the source holds several entries; their conditions need not be identical. Equal values may be shown once. Not every detail of the peptide structures is certain; ends, links or a residue may be inferred. No end group written: not given here.

Test system: human CD14+ monocytes
Test: Human 21K DNA microarrays of CD14+ monocytes from PBMC stimulated with SEQ ID NO: 7 and/or LPS (Tables 69-72)
Assay type: cell-based

KSRIVPAIPVSLL [SEQ ID NO: 7]
Fold Change by LPS + SEQ 7 (gene SNX16): 1.6 fold
Fold Change by LPS + SEQ 7 (gene SOD2): 2.1 fold
Fold Change by LPS + SEQ 7 (gene SOD2, human monocytes): 3.3 fold
Fold Change by LPS + SEQ 7 (gene SOD3, human monocytes): 3.0 fold
Fold Change SEQ ID NO: 7 (gene SOX6): 1.8
Fold Change by LPS + SEQ 7 (gene SOX9, human monocytes): 6.1 fold
Fold Change by LPS + SEQ 7 (gene SP3, human monocytes): 4.2 fold
Fold Change by LPS + SEQ 7 (gene SPATA13): 1.7 fold
Fold Change by LPS + SEQ 7 (gene SPG6, human monocytes): 5.2 fold
Fold Change by LPS + SEQ 7 (gene SPG7, human monocytes): 2.6 fold
Fold Change by LPS + SEQ 7 (gene SPTBN1, human monocytes): 2.4 fold
Fold Change by LPS + SEQ 7 (gene SRPRB, human monocytes): 2.3 fold
Fold Change by LPS + SEQ 7 (gene SS18): 1.5 fold
Fold Change SEQ ID NO: 7 (gene SSBP3): 1.6
Fold Change by LPS + SEQ 7 (gene SSBP3): 1.7 fold
Fold Change by LPS + SEQ 7 (gene STAG1): −1.6 fold
Fold Change by LPS + SEQ 7 (gene STAMBP): 1.8 fold
Fold Change SEQ ID NO: 7 (gene STAT1): 1.7
Fold Change by LPS + SEQ 7 (gene STATH, human monocytes): 31.8 fold
Fold Change by LPS + SEQ 7 (gene STAU): 1.7 fold
Fold Change by LPS + SEQ 7 (gene STIM1, human monocytes): 4.1 fold
Fold Change by LPS + SEQ 7 (gene STK29): −1.6 fold
Fold Change SEQ ID NO: 7 (gene STK39): −1.7
Fold Change SEQ ID NO: 7 (gene STMN2): 2.0
Fold Change by LPS + SEQ 7 (gene STMN2, human monocytes): 3.3 fold
Fold Change by LPS + SEQ 7 (gene STMN4): −1.7 fold
Fold Change by LPS + SEQ 7 (gene STUB1, human monocytes): 11.8 fold
Fold Change by LPS + SEQ 7 (gene STX11): 1.7 fold
Fold Change SEQ ID NO: 7 (gene STX16): −1.5
Fold Change by LPS + SEQ 7 (gene SUI1): 1.6 fold
Fold Change by LPS + SEQ 7 (gene SULT1C1, human monocytes): 3.5 fold
Fold Change by LPS + SEQ 7 (gene SULT1E1): −1.6 fold
Fold Change by LPS + SEQ 7 (gene SV2B): −1.7 fold
Fold Change by LPS + SEQ 7 (gene SYNE1, human monocytes): 12.2 fold
Fold Change by LPS + SEQ 7 (gene SYNGR2, human monocytes): 5.6 fold
Fold Change by LPS + SEQ 7 (gene SYT1, human monocytes): 6.1 fold
Fold Change by LPS + SEQ 7 (gene SYT11, human monocytes): 6.1 fold
Fold Change by LPS + SEQ 7 (gene TACSTD1, human monocytes): 3.6 fold
Fold Change SEQ ID NO: 7 (gene TBC1D14): 1.6
Fold Change by LPS + SEQ 7 (gene TBL1XR1): 1.8 fold
Fold Change SEQ ID NO: 7 (gene TCBA1): 1.5
Fold Change by LPS + SEQ 7 (gene TCF12): 2.0 fold
Fold Change by LPS + SEQ 7 (gene TCN1, human monocytes): 6.7 fold
Fold Change by LPS + SEQ 7 (gene TCP10): −1.6 fold
Fold Change by LPS + SEQ 7 (gene TDRD1, human monocytes): 4.0 fold
Fold Change by LPS + SEQ 7 (gene TEP1): 1.5 fold
Fold Change by LPS + SEQ 7 (gene TESK2): −1.6 fold
Fold Change by LPS + SEQ 7 (gene TEX14, human monocytes): 3.6 fold
Fold Change SEQ ID NO: 7 (gene TFB1M): −1.7
Fold Change SEQ ID NO: 7 (gene TFCP2L3): −1.9
Fold Change SEQ ID NO: 7 (gene TFEC): 1.6
Fold Change by LPS + SEQ 7 (gene TFEC, human monocytes): 5.5 fold
Fold Change SEQ ID NO: 7 (gene TFR2): 1.8
Fold Change by LPS + SEQ 7 (gene TG, human monocytes): 5.0 fold
Fold Change by LPS + SEQ 7 (gene TGDS): 1.6 fold
Fold Change SEQ ID NO: 7 (gene TGIF): 1.6
Fold Change by LPS + SEQ 7 (gene TGM4, human monocytes): 73.5 fold
Fold Change SEQ ID NO: 7 (gene TGM5): −1.5
Fold Change by LPS + SEQ 7 (gene THAP9): −1.7 fold
Fold Change by LPS + SEQ 7 (gene TIGD4): 1.5 fold
Fold Change by LPS + SEQ 7 (gene TIGD7): −2.3 fold
Fold Change by LPS + SEQ 7 (gene TIMM8B): 1.5 fold
Fold Change by LPS + SEQ 7 (gene TIMP2): −1.5 fold
Fold Change by LPS + SEQ 7 (gene TIRAP, human monocytes): 5.4 fold
Fold Change SEQ ID NO: 7 (gene TMF1): −2.1
Fold Change by LPS + SEQ 7 (gene TMH): −1.7 fold
Fold Change by LPS + SEQ 7 (gene TMOD4, human monocytes): 115.9 fold
Fold Change by LPS + SEQ 7 (gene TMSB10, human monocytes): 4.9 fold
Fold Change by LPS + SEQ 7 (gene TNF, human monocytes): 2.4 fold
Fold Change by LPS + SEQ 7 (gene TNFAIP3): 2.0 fold
Fold Change by LPS + SEQ 7 (gene TNFAIP6, human monocytes): 2.5 fold
Fold Change by LPS + SEQ 7 (gene TNFAIP8): 2.2 fold
Fold Change by LPS + SEQ 7 (gene TNFRSF1B): 1.6 fold
Fold Change by LPS + SEQ 7 (gene TNFRSF6): 1.6 fold
Fold Change by LPS + SEQ 7 (gene TNFRSF9, human monocytes): 3.7 fold
Fold Change by LPS + SEQ 7 (gene TNFSF5IP1, human monocytes): 4.0 fold
Fold Change by LPS + SEQ 7 (gene TNIP3, human monocytes): 3.4 fold
Fold Change by LPS + SEQ 7 (gene TNNC2): −1.7 fold
Fold Change by LPS + SEQ 7 (gene TPCN1): −1.6 fold
Fold Change by LPS + SEQ 7 (gene TPR): 1.6 fold
Fold Change SEQ ID NO: 7 (gene TRAPPC3): 1.8
Fold Change by LPS + SEQ 7 (gene TREX2, human monocytes): 4.9 fold
Fold Change SEQ ID NO: 7 (gene TRIM11): −1.5
Fold Change by LPS + SEQ 7 (gene TRIM26): −1.5 fold
Fold Change by LPS + SEQ 7 (gene TRIM36): 2.2 fold
Fold Change SEQ ID NO: 7 (gene TRIM39): 1.7
Fold Change by LPS + SEQ 7 (gene TRIM39): 2.0 fold
Fold Change by LPS + SEQ 7 (gene TROAP): 1.8 fold
Fold Change by LPS + SEQ 7 (gene TRPC5): 1.8 fold
Fold Change SEQ ID NO: 7 (gene TRPC7): 1.8
Fold Change by LPS + SEQ 7 (gene TRPC7): 2.2 fold
Fold Change by LPS + SEQ 7 (gene TRPM3, human monocytes): 7.5 fold
Fold Change SEQ ID NO: 7 (gene TRPM4): −1.8
Fold Change SEQ ID NO: 7 (gene TRPV1): 1.6
Fold Change by LPS + SEQ 7 (gene TSGA10): 1.8 fold
Fold Change SEQ ID NO: 7 (gene TSHR): 1.7
Fold Change SEQ ID NO: 7 (gene TSPAN9): 1.9
Fold Change SEQ ID NO: 7 (gene TTC12): 1.5
Fold Change by LPS + SEQ 7 (gene TTC17): −1.7 fold
Fold Change SEQ ID NO: 7 (gene TTLL3): 1.9
Fold Change by LPS + SEQ 7 (gene TTLL3): 2.1 fold
Fold Change by LPS + SEQ 7 (gene TUBGCP6, human monocytes): 7.8 fold
Fold Change by LPS + SEQ 7 (gene TUSC4, human monocytes): 2.4 fold
Fold Change by LPS + SEQ 7 (gene UACA): −1.5 fold
Fold Change by LPS + SEQ 7 (gene UBCE7IP1, human monocytes): 2.7 fold
Fold Change by LPS + SEQ 7 (gene UBE2G2): 1.5 fold
Fold Change by LPS + SEQ 7 (gene UBE2N, human monocytes): 9.6 fold
Fold Change by LPS + SEQ 7 (gene UBE2R2): −1.5 fold
Fold Change by LPS + SEQ 7 (gene UBR1): −1.6 fold
Fold Change by LPS + SEQ 7 (gene UBXD2, human monocytes): 6.8 fold
Fold Change by LPS + SEQ 7 (gene UFC1): 1.9 fold
Fold Change by LPS + SEQ 7 (gene UGT2B7): −2.1 fold
Fold Change SEQ ID NO: 7 (gene UNC5B): 1.8
Fold Change by LPS + SEQ 7 (gene UNC5B): 2.1 fold
Fold Change by LPS + SEQ 7 (gene UNC5C): 1.6 fold
Fold Change SEQ ID NO: 7 (gene UPK2): −1.9
Fold Change by LPS + SEQ 7 (gene URP2): 1.6 fold
Fold Change SEQ ID NO: 7 (gene USP6NL): 1.7
Fold Change by LPS + SEQ 7 (gene USP6NL): −1.8 fold
Fold Change by LPS + SEQ 7 (gene USP13): 1.5 fold
Fold Change SEQ ID NO: 7 (gene USP45): 1.9
Fold Change SEQ ID NO: 7 (gene VARS2): 1.6
Fold Change by LPS + SEQ 7 (gene VBP1, human monocytes): 3.3 fold
Fold Change by LPS + SEQ 7 (gene VGCNL1): 1.6 fold
Fold Change SEQ ID NO: 7 (gene VPREB1): 2.2
Fold Change by LPS + SEQ 7 (gene VPREB1): 1.9 fold
Fold Change by LPS + SEQ 7 (gene VPS4B): −1.6 fold
Fold Change by LPS + SEQ 7 (gene VSX1): 1.6 fold
Fold Change by LPS + SEQ 7 (gene VTI1A): −2.3 fold
Fold Change by LPS + SEQ 7 (gene WASF1): 1.6 fold
Fold Change by LPS + SEQ 7 (gene WASF2): −1.6 fold
Fold Change by LPS + SEQ 7 (gene WASF3): 1.8 fold
Fold Change by LPS + SEQ 7 (gene WBP1): −1.5 fold
Fold Change by LPS + SEQ 7 (gene WBSCR18, human monocytes): 27.4 fold
Fold Change SEQ ID NO: 7 (gene WBSCR19): −1.9
Fold Change SEQ ID NO: 7 (gene WFS1): 2.0
Fold Change by LPS + SEQ 7 (gene WIF1): 1.5 fold
Fold Change by LPS + SEQ 7 (gene WTAP, human monocytes): 2.3 fold
Fold Change SEQ ID NO: 7 (gene WWP2): 2.2
Fold Change SEQ ID NO: 7 (gene Wdr68, Han11): 1.7
Fold Change by LPS + SEQ 7 (gene Wdr68, Han11, human monocytes): 4.5 fold
Fold Change by LPS + SEQ 7 (gene X59362.1, human monocytes): 2.8 fold
Fold Change by LPS + SEQ 7 (gene XRCC5, human monocytes): 7.3 fold
Fold Change by LPS + SEQ 7 (gene YWHAH, human monocytes): 2.6 fold
Fold Change by LPS + SEQ 7 (gene ZCCHC2): 1.9 fold
Fold Change by LPS + SEQ 7 (gene ZCCHC4): −1.6 fold
Fold Change SEQ ID NO: 7 (gene ZCCHC7): −1.6
Fold Change by LPS + SEQ 7 (gene ZDHHC2): 1.8 fold
Fold Change SEQ ID NO: 7 (gene ZFP36): 1.7
Fold Change by LPS + SEQ 7 (gene ZFP36L2): −1.9 fold
Fold Change by LPS + SEQ 7 (gene ZFP64): −1.6 fold
Fold Change by LPS + SEQ 7 (gene ZFP90): 2.0 fold
Fold Change by LPS + SEQ 7 (gene ZFYVE20, human monocytes): 3.3 fold
Fold Change by LPS + SEQ 7 (gene ZIC1): 1.9 fold
Fold Change by LPS + SEQ 7 (gene ZNF73, human monocytes): 36.4 fold
Fold Change SEQ ID NO: 7 (gene ZNF78L1): −1.6
Fold Change SEQ ID NO: 7 (gene ZNF80): 2.4
Fold Change by LPS + SEQ 7 (gene ZNF80, human monocytes): 2.5 fold
Fold Change SEQ ID NO: 7 (gene ZNF83): 1.5
Fold Change by LPS + SEQ 7 (gene ZNF83): 1.9 fold
Fold Change SEQ ID NO: 7 (gene ZNF140): 2.0
Fold Change SEQ ID NO: 7 (gene ZNF177): 1.7
Fold Change by LPS + SEQ 7 (gene ZNF208, human monocytes): 6.0 fold
Fold Change by LPS + SEQ 7 (gene ZNF219): 1.5 fold
Fold Change SEQ ID NO: 7 (gene ZNF254): 1.8
Fold Change SEQ ID NO: 7 (gene ZNF292): 1.7
Fold Change by LPS + SEQ 7 (gene ZNF302, human monocytes): 33.6 fold
Fold Change by LPS + SEQ 7 (gene ZNF322B, human monocytes): 8.3 fold
Fold Change by LPS + SEQ 7 (gene ZNF347): −1.6 fold
Fold Change by LPS + SEQ 7 (gene ZNF354A): −1.5 fold
Fold Change by LPS + SEQ 7 (gene ZNF365): 1.7 fold
Fold Change by LPS + SEQ 7 (gene ZNF431): −1.8 fold
Fold Change by LPS + SEQ 7 (gene ZNF451): 2.0 fold
Fold Change SEQ ID NO: 7 (gene ZNF514): 1.5
Fold Change by LPS + SEQ 7 (gene ZNF571): 1.6 fold
Fold Change SEQ ID NO: 7 (gene ZNF576): 3.2
Fold Change by LPS + SEQ 7 (gene ZNF576, human monocytes): 2.3 fold
Fold Change by LPS + SEQ 7 (gene ZNF578): 1.8 fold and 1.7 fold
Fold Change by LPS + SEQ 7 (gene ZNF593): 1.8 fold
Fold Change by LPS + SEQ 7 (gene ZNF595, human monocytes): 2.7 fold
Fold Change by LPS + SEQ 7 (gene ZWINT): 2.0 fold
